Measured values published in the supplement of paper PMC7666118.
The list shows a part of the results.

The chains behind the UniProt entries cited, without tags or fusion partners. Where a name states a change or a piece, a line headed by the entry shows the natural chain unless it says otherwise.
UniProt Q9GZP4: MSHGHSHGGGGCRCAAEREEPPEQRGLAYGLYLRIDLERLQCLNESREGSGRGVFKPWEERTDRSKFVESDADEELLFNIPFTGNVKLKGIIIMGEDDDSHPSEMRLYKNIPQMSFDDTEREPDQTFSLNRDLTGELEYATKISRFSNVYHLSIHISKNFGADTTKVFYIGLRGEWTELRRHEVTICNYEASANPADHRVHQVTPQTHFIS
UniProt Q92851: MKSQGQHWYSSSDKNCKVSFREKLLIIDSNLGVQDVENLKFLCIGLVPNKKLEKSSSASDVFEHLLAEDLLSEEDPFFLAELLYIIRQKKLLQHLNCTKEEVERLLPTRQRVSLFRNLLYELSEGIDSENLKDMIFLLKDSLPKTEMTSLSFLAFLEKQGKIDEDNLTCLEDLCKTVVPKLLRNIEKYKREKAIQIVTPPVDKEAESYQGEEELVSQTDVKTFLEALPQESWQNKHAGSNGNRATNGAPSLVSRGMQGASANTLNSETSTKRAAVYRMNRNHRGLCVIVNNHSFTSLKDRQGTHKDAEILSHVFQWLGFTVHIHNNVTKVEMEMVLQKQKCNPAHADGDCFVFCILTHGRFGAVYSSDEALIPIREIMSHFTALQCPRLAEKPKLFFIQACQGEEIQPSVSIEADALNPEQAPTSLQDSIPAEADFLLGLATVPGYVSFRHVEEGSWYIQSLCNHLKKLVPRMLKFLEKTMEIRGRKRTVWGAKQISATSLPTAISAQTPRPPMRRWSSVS
UniProt Q8N5L8: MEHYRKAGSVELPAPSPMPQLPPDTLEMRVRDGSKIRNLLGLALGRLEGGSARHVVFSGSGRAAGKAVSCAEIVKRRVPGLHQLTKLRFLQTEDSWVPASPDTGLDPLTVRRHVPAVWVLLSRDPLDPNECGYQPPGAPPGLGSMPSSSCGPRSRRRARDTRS
UniProt Q5VW32: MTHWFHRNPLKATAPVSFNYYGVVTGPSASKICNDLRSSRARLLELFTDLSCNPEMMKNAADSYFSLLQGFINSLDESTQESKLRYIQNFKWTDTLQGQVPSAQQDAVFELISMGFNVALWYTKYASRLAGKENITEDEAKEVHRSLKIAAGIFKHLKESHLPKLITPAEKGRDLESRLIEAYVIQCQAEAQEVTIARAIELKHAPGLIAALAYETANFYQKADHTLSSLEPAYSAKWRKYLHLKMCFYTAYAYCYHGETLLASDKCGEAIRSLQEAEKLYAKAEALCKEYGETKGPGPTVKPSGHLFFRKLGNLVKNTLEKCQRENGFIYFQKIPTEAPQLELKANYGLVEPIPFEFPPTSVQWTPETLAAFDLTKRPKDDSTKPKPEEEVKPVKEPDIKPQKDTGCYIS
UniProt Q8IX12: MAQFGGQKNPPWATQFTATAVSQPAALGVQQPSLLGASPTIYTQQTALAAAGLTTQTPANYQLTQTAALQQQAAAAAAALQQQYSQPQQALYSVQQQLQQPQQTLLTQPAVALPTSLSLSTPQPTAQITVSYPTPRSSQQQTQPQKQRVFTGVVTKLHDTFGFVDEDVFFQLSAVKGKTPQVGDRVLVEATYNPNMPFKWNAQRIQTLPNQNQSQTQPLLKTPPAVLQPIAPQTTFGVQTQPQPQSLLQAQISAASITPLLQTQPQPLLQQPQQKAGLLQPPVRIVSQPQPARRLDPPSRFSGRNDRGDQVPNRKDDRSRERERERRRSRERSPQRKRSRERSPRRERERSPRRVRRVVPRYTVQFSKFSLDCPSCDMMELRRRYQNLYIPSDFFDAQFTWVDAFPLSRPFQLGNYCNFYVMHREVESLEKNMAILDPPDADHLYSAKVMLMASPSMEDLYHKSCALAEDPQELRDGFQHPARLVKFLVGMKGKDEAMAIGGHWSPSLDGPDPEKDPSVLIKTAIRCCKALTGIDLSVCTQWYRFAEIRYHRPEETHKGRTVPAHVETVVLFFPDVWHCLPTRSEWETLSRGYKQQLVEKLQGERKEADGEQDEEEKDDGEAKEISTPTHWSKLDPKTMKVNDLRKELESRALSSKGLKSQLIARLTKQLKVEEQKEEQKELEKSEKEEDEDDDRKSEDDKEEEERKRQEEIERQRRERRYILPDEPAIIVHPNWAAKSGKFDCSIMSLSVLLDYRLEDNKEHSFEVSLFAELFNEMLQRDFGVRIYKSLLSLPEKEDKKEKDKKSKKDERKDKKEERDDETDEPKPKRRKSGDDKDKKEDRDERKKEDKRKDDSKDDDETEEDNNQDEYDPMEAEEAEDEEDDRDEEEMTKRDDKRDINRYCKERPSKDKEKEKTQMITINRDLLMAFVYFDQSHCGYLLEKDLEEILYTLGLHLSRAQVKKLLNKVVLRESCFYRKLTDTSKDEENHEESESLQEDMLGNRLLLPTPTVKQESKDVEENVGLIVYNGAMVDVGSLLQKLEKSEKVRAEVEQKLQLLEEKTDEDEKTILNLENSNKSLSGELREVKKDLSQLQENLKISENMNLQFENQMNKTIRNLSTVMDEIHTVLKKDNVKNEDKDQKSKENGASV
UniProt Q13951, whole entry: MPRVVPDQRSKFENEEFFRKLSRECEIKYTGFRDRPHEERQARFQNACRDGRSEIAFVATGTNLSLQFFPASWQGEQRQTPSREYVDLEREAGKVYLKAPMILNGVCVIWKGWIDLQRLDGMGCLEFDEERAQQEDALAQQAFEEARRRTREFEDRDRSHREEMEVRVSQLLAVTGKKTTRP
UniProt Q8WWB7: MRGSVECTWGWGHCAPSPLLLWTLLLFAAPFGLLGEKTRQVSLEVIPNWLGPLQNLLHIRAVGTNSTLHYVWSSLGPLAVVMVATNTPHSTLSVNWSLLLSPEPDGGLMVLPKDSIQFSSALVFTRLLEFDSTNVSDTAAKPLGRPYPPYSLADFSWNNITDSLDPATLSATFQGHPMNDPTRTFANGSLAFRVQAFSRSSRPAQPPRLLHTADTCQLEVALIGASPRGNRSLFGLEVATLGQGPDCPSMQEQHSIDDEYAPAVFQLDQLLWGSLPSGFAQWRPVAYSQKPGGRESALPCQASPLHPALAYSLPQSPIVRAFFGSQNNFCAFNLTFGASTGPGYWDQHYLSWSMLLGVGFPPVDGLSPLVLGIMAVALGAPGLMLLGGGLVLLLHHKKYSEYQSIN
UniProt Q8N6N3: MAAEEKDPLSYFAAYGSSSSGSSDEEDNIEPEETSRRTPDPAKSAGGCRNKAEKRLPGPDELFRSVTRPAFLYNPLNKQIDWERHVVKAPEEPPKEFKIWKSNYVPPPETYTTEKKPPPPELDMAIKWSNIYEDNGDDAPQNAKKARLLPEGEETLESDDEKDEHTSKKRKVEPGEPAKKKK
UniProt Q8WUD4: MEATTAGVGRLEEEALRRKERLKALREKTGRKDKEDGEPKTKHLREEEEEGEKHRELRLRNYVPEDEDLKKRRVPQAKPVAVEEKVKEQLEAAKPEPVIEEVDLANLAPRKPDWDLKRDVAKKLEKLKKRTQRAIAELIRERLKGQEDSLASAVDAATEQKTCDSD
UniProt Q96ES7: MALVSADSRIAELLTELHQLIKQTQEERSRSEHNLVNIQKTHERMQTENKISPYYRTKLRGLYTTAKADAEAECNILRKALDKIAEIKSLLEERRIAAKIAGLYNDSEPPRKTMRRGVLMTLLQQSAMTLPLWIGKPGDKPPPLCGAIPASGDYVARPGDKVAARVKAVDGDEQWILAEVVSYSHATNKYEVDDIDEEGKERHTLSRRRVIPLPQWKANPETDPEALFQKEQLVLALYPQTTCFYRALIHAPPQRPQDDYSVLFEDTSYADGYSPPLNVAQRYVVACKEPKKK
UniProt Q9HC52: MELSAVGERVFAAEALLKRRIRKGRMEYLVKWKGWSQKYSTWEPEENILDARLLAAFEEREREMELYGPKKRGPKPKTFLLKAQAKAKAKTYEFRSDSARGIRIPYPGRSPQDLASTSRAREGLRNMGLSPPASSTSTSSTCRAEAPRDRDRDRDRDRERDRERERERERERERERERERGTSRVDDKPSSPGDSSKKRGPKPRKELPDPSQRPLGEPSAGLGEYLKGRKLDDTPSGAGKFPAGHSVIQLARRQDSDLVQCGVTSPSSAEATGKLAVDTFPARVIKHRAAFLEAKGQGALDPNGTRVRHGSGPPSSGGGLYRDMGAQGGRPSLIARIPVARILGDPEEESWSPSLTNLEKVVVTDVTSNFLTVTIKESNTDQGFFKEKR
UniProt Q9Y592: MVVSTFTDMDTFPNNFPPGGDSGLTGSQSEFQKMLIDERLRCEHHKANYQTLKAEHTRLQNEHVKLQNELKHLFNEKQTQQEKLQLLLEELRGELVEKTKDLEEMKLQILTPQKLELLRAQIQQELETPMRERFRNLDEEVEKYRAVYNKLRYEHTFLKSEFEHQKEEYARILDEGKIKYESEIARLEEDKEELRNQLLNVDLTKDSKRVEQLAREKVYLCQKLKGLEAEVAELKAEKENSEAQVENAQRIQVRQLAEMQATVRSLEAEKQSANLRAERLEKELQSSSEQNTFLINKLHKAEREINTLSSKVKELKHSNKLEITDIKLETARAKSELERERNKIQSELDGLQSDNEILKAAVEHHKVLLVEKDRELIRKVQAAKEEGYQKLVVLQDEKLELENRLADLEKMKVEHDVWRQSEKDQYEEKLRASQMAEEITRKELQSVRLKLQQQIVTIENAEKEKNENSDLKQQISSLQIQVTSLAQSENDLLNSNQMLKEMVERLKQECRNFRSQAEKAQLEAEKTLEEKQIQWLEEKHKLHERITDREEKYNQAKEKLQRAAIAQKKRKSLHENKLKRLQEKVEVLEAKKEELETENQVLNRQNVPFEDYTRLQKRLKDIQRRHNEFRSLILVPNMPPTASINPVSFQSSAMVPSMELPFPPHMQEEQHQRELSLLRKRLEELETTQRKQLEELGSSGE
UniProt Q8NDZ4: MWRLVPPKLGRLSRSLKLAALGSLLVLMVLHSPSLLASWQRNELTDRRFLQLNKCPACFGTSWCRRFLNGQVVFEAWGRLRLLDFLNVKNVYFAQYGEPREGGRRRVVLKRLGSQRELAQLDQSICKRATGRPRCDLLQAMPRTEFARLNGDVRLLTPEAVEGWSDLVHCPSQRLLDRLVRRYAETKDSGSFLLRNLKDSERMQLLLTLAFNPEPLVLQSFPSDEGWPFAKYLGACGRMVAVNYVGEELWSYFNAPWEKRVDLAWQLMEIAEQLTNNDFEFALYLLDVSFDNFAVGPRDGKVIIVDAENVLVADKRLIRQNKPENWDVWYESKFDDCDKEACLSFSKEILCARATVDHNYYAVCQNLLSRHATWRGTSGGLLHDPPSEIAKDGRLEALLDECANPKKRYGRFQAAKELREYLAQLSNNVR
UniProt Q6PII3: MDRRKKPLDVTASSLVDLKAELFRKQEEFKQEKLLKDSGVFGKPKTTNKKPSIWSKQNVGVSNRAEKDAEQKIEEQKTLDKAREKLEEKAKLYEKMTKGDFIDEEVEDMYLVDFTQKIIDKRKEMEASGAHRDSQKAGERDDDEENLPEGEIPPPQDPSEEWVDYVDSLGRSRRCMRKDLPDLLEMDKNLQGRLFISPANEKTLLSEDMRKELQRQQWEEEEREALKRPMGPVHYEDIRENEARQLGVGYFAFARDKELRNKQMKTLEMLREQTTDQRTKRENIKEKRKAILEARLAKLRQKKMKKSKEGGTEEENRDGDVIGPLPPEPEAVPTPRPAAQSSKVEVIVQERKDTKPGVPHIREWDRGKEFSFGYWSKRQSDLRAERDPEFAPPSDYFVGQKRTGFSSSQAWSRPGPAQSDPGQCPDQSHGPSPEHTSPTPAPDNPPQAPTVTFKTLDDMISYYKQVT
UniProt Q8NAT1: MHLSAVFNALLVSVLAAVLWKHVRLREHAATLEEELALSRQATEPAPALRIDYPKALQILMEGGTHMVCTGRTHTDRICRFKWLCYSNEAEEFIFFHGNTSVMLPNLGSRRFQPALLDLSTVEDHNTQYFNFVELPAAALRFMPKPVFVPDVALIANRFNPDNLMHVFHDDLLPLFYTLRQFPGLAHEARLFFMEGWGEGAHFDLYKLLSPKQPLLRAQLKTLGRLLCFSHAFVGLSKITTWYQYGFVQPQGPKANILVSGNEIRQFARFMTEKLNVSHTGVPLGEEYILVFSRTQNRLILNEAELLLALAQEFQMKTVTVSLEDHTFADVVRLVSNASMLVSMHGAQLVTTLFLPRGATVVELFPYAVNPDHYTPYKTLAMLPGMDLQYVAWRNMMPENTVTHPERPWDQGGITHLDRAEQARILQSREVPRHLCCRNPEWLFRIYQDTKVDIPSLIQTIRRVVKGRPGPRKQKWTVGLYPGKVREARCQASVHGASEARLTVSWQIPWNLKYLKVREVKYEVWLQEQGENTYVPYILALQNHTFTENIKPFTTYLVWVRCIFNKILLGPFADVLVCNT
UniProt P40121: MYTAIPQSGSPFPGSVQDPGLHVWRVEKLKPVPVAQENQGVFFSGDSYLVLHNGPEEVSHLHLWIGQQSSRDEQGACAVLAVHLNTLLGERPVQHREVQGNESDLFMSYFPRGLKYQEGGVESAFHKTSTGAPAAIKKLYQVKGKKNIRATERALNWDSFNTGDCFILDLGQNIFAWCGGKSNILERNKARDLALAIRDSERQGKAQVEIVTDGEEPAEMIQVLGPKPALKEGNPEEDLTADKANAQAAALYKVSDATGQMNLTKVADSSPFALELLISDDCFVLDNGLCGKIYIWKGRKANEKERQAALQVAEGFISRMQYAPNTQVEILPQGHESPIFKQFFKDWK

These targets were tested with COc1ccc(Cn2ccc3cc(C)c(C(=O)NO)cc32)cc1 (assay: dose-dependent thermal stabilisation call (2D-TPP, DLPTP, 10% FDR) (binary (1 = stabilised)); higher = stabilised by the compound). Conditions: system: HL-60 intact cells; concentration range 0.04-10 µM.
Experimental: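 2D thermal proteome profiling in intact HL-60 cells treated with BRD-3811 (0, 0.04, 0.29, 2, 10 uM) for 90 min at 37 C, then heated 3 min at one of 12 temperatures (42-63.9 C). Soluble protein was quantified by TMT10 MS. The value is the DLPTP call of the paper: dose-dependent thermal stabilisation over all temperatures at 10% FDR (F-test of a dose-response against a flat model); one experiment, one call per tested protein.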

Row | Target | dose-dependent thermal stabilisation call
1 | C1ORF123 (UniProt Q9NWV4) | inactive: 0
2 | C5ORF28 (UniProt Q0VDI3) | inactive: 0
3 | C6ORF153 (UniProt Q96EU6) | inactive: 0
4 | C6ORF108 (UniProt O43598) | inactive: 0
5 | C1ORF128 (UniProt Q9GZP4) | inactive: 0
6 | C7ORF42 (UniProt Q9NWD8) | inactive: 0
7 | C9ORF40 (UniProt Q8IXQ3) | inactive: 0
8 | CCT6B (UniProt Q92526) | inactive: 0
9 | CASP10 (UniProt Q92851) | inactive: 0
10 | C9ORF23 (UniProt Q8N5L8) | inactive: 0
11 | CCDC56 (UniProt Q9Y2R0) | inactive: 0
12 | C21ORF45 (UniProt Q9NYP9) | inactive: 0
13 | CARKD (UniProt Q8IW45) | inactive: 0
14 | C1ORF58 (UniProt Q5VW32) | inactive: 0
15 | C8ORF55 (UniProt Q8WUY1) | inactive: 0
16 | CBX3 (UniProt Q13185) | inactive: 0
17 | CCAR1 (UniProt Q8IX12) | inactive: 0
18 | CCDC50 (UniProt Q8IVM0) | inactive: 0
19 | CBFB (UniProt Q13951) | inactive: 0
20 | C1ORF85 (UniProt Q8WWB7) | inactive: 0

Row | Target | dose-dependent thermal stabilisation call
21 | C2ORF79 (UniProt Q6GMV3) | inactive: 0
22 | C1ORF52 (UniProt Q8N6N3) | inactive: 0
23 | CCDC12 (UniProt Q8WUD4) | inactive: 0
24 | CCDC101 (UniProt Q96ES7) | inactive: 0
25 | CCDC90A (UniProt Q96AQ8) | inactive: 0
26 | CAPNS1 (UniProt P04632) | inactive: 0
27 | CBX8 (UniProt Q9HC52) | inactive: 0
28 | C7ORF26 (UniProt Q96N11) | inactive: 0
29 | CCDC41 (UniProt Q9Y592) | inactive: 0
30 | CAMLG (UniProt P49069) | inactive: 0
31 | C3ORF58 (UniProt Q8NDZ4) | inactive: 0
32 | CCNK (UniProt O75909) | inactive: 0
33 | CCDC25 (UniProt Q86WR0) | inactive: 0
34 | C3ORF19 (UniProt Q6PII3) | inactive: 0
35 | C3ORF39 (UniProt Q8NAT1) | inactive: 0
36 | CCDC43 (UniProt Q96MW1) | inactive: 0
37 | C20ORF43 (UniProt Q9BY42) | inactive: 0
38 | C19ORF66 (UniProt Q9NUL5) | inactive: 0
39 | CAPG (UniProt P40121) | inactive: 0
40 | C7ORF23 (UniProt Q9BU79) | inactive: 0

In another format: entries from further up.
Row	Target	dose-dependent thermal stabilisation call
30	CAMLG (UniProt P49069)	inactive: 0
31	C3ORF58 (UniProt Q8NDZ4)	inactive: 0
